PubChem BioAssay AID1224826 | NIAID, 2016

- Assay: 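Knock-downs that raise or lower Tnf reporter signal after endotoxin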 (primary screen)
- System: RAW264.7 G9 macrophages from mouse bearing reporters for p65 (GFP) and the Tnf promoter (mCherry)
- Reagents: siRNA pool against mouse genes, 100 nM
- Duration: 16 h of LPS stimulation, after 2 days of siRNA transfection
- Treatment: bacterial lipopolysaccharide (Salmonella minnesota R595), 10 ng/ml
- Measurement: 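Nuclear mCherry signal of the Tnf promoter reporter measured by imaging after background removal, scaled to each plate median and turned into robust z-scores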
- Direction: Tnf reporter robust z-score: higher = stronger Tnf promoter reporter signal after LPS
- Rule for the call: 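a well counts as active at a score of -1.3 or below (Tlr4 knock-down control median) or above 3 (raised signal); controls and wells holding fewer than 50 cells are excluded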
- Calls: active = Tnf reporter clearly lowered or raised; inactive = no clear change in Tnf reporter
Here is an unselected part of about 17,000 reagents. In the full data, about 1,110 (6.6%) were called active. 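Active means lowered or raised reporter signal; replicate intensities are raw and not normalised per plate.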 Further read-outs or replicates are left out here. Reagent sequences are not shown.

gene symbol,Tnf reporter robust z-score,fewer than 50 cells in well,Outcome
Atp5mc2,-0.02,enough cells in well,inactive
Lpar2,0.45,enough cells in well,inactive
Adam3,-0.08,enough cells in well,inactive
Scp2d1,1.96,enough cells in well,inactive
Hrk,-0.57,enough cells in well,inactive
Prrx1,-0.52,enough cells in well,inactive
Cspg4,1.06,enough cells in well,inactive
Or4c106,-0.18,enough cells in well,inactive
Srcin1,,fewer than 50 cells per well; well left out of calls,inactive
Hrh2,-0.03,enough cells in well,inactive
Tmem53,-0.37,enough cells in well,inactive
H2-Aa,-0.25,enough cells in well,inactive
Rcan3,-0.85,enough cells in well,inactive

Targets listed so far whose target name begins with H or h:
gene symbol,Tnf reporter robust z-score,fewer than 50 cells in well,Outcome
Hrk,-0.57,enough cells in well,inactive
Hrh2,-0.03,enough cells in well,inactive
H2-Aa,-0.25,enough cells in well,inactive

The results go on:
gene symbol,Tnf reporter robust z-score,fewer than 50 cells in well,Outcome
Stk32b,,fewer than 50 cells per well; well left out of calls,inactive
Eomes,-1.08,enough cells in well,inactive
Ildr1,3.2,enough cells in well,active
Ifitm5,-0.44,enough cells in well,inactive
Prrg2,2.89,enough cells in well,inactive
Cdhr4,0.55,enough cells in well,inactive
Pigr,0.32,enough cells in well,inactive
4930563M21Rik,,fewer than 50 cells per well; well left out of calls,inactive
Diablo,1.18,enough cells in well,inactive
Cibar1,0.69,enough cells in well,inactive
Or13c7c,0,enough cells in well,inactive
Sdhb,-0.69,enough cells in well,inactive
Slc2a8,0.32,enough cells in well,inactive
Ftl1,1.97,enough cells in well,inactive
Alox5ap,0.11,enough cells in well,inactive
Ncapg2,-0.01,enough cells in well,inactive
Sfrp1,0.74,enough cells in well,inactive
Rpl13,-0.98,enough cells in well,inactive
Kat2a,-1.92,enough cells in well,active
9530091C08Rik,0.44,enough cells in well,inactive
Mfsd8,0.72,enough cells in well,inactive
4931406H21Rik,,fewer than 50 cells per well; well left out of calls,inactive
Or5an1c,-1.51,enough cells in well,active
Cry2,0.01,enough cells in well,inactive
4933414I15Rik,,fewer than 50 cells per well; well left out of calls,inactive
Or10g6,1.33,enough cells in well,inactive
Maob,-0.11,enough cells in well,inactive
